Source: patent US8357694B2, “Substituted 5,6-dihydro-6-phenylbenzo[F]isoquinolin-2-amine compounds” (ArQule, Inc., priority 2008, dated 2013)
Counter-ions that a name gives are not always drawn.

Row | SMILES | melting point [°C]
1 | CN(CCc1ccc(Nc2ncc3c(n2)-c2ccccc2[C@H](c2ccc(Cl)cc2)C3)cc1)C1CCCCC1 (as salt: hydrochloride) | 159 to 162
2 | CN(CCc1ccc(Nc2ncc3c(n2)-c2ccccc2C(c2ccc(Cl)cc2)C3)cc1)C1CCCCC1 (centres unmarked) (as salt: hydrochloride) | 157 to 163
